Molecular target: T1, hTREK-1 (Homo sapiens, UniProt O95069)
T1 sequence (O95069 1-422 isoform O95069-3): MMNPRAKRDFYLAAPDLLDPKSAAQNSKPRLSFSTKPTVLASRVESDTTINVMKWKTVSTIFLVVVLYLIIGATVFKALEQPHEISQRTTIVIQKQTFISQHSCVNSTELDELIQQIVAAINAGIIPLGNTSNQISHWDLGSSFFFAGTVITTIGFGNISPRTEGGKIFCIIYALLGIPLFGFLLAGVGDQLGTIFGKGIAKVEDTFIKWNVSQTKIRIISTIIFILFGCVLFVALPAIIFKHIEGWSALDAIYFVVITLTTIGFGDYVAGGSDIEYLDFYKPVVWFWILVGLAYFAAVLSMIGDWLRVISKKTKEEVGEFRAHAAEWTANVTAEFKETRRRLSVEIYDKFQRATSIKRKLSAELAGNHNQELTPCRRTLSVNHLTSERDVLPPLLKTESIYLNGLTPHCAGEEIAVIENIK
Assay: Whole cell patch clamp on HEK-hTREK-1 cells
Format: cell-based
Parameters: transfected with the human Kcnk2 (NM_001017424) or Kcnk10 (NM_021161) ORF cloned in a pEZ-M02 expression vector

The chains behind the UniProt entries cited, without tags or fusion partners. Where a name states a change or a piece, a line headed by the entry shows the natural chain unless it says otherwise.
UniProt O95069: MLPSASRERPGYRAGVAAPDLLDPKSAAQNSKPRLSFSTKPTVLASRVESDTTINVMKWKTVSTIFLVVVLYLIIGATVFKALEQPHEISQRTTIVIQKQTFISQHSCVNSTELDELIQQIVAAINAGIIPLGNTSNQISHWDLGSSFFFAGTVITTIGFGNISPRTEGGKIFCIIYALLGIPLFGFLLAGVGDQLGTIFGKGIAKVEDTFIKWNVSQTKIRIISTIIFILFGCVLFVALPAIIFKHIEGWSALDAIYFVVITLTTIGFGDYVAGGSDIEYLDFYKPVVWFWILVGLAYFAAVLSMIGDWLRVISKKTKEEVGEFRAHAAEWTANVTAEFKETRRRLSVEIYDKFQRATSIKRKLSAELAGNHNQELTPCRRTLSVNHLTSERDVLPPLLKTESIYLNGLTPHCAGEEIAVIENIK

increase of mean current density recorded at 0 mV: 2.23 fold
Compound: Nc1nc2ccc(OC(F)(F)F)cc2s1 [Riluzole, riluzole]

Source: PMC12109561, “LPS2336, a New TREK-1 Channel Activator Identified by High Throughput Screening” (Biomolecules, 2025)
